## Library screen at single concentrations

T. brucei: 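Whole-parasite assay of Trypanosoma brucei over 72 hours; the read-out is not stated. Tested at 30 µM. The record gives no direction; compounds that gave an IC50 in retests scored well above the rest, so higher reads as stronger inhibition. Values scatter widely below zero; nearly all retest evidence comes from the higher of the two concentrations used. Of about 64,000 compounds tested this way, about 940 (1.5%) reached 50% or more in at least one test.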
Toxoplasma: 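Assay of Toxoplasma gondii numbers, read through their beta-galactosidase reporter with a colour substrate. Tested at 10 µM. The record gives no direction; the compounds picked for IC50 retests had high values, so higher reads as fewer parasites. Size under these conditions: about 67,000 compounds, about 260 of them at 50% or above in at least one test.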

Each number is a percent effect as filed.
The controls that fix the scale are not given in the record; negative values are as filed.
This is an unselected part of the compounds tested.
A dash means the value is not listed here; it may have been measured.

| # | Compound | T. brucei | Toxoplasma |
|---|---|---|---|
| 1 | `c1cnc(NCC2Cn3nnc(-c4ccoc4)c3CO2)nc1` (stereo not shown) | -27.66% | -9.411% |
| 2 | `CCN(CC)Cc1ccccc1NC(=O)N(C)Cc1ccccc1O` | -48.84% | 8.977% |
| 3 | `CCOC(=O)Cc1csc(NC(=O)c2cc3n(n2)CCCO3)n1` | 21.08% | 4.211% |
| 4 | `NC(=O)c1ccc(CN2CCC(N3CCCC3)CC2)cc1` | -0.5694% | 7.746% |
| 5 | `Fc1ccc(-c2nc(CNC3CCc4ncnn4C3)cs2)cc1` (stereo not shown) | 1.76% | -18.78% |
| 6 | `CN(C)C[C@H]1CC[C@@H](Cc2ccc3c(cnn3C)c2)O1` | -3.425% | -20.93% |
| 7 | `CC(C)N1CCC(CC(=O)NC(C(=O)O)c2cc(F)ccc2F)CC1` (stereo not shown) | -7.237% | 1.874% |
| 8 | `Cc1ccc(CN2CCc3nnc(CN4CCCC4=O)n3CC2)s1.O=C(O)C(F)(F)F` | -3.155% | -2.034% |
| 9 | `Cn1ncc2c(=O)[nH]c(CN3CCc4ccccc4C3)nc21` | -8.14% | -7.881% |
| 10 | `NC(=O)[C@H]1CCCN(c2nccc(-c3ccncc3)n2)C1` | -19.3% | -9.858% |
| 11 | `COc1ccc(CC(=O)N2CCN(C)c3ncccc3C2)cc1.O=C(O)C(F)(F)F` | -27.37% | -6.57% |
| 12 | `CC(=O)N1CCCCCC1C1CCN(c2ncccc2C#N)CC1` (stereo not shown) | 13.42% | -33.66% |
| 13 | `CC(C)OC(=O)N1CCCC(c2nccn2Cc2ccncc2)C1` (stereo not shown) | -44.21% | -23.51% |
| 14 | `Cc1oncc1C(=O)NCc1cc(=O)n2c(n1)CN(CC1CC1)CCC2.O=C(O)C(F)(F)F` | -23.12% | 1.438% |
| 15 | `Cc1nsc(NC2CCOC3(CCCCC3)C2)n1` (stereo not shown) | -19.17% | 13.49% |
| 16 | `COc1ccc(F)cc1C[S+]([O-])CC(=O)NCC(C)C` (stereo not shown) | -48.28% | 3.363% |
| 17 | `O=C(Cc1ccsc1)N1CCn2cc(Cn3cncn3)nc2C1` | -68.18% | -3.493% |
| 18 | `CN1CC(c2ccccc2)CC12CCN(C(=O)c1cccnc1)CC2` (stereo not shown) | -25.58% | -5.622% |
| 19 | `Cl.Cn1ccnc1N1CCN(C(=O)Cc2ccccc2)CC1` | -12.02% | 9.57% |
| 20 | `CCn1nc(C)c2c1cnn2CC(=O)NC(C)c1cccc(OC)c1` (stereo not shown) | -17.9% | 14.25% |
| 21 | `N#Cc1ccc(Cl)cc1NCC1CC1` | -13.04% | -1.358% |
| 22 | `COCCNC(=O)c1nc2c(s1)CCCN2Cc1ccccc1` | - | -13.78% |
| 23 | `CN(CC(N)=O)CC(=O)N1CC=C(c2ccccc2)CC1` | - | 14.2% |
| 24 | `CCc1noc(C(C)N2CCN(c3ccc(C#N)cc3F)CC2)n1` (stereo not shown) | 12.45% | 2.262% |
| 25 | `Cc1cn2c(=O)c(-c3ccnc(N[C@@H](C)CO)n3)cnc2s1` | -10.5% | 3.508% |
| 26 | `Cc1nc(CN2CCc3nn(C)c(=O)cc3C2)oc1C` | 16.32% | 11.67% |
| 27 | `CN1CCN(C(=O)C2CCCc3[nH]ncc32)CC1` (stereo not shown) | -33.2% | 12.12% |
| 28 | `CCCc1nnc(N2CCN(c3ccccc3Cl)CC2)o1` | -18.05% | 11.62% |
| 29 | `NC(=O)CC1CCN(c2ncnc3cccc(F)c23)CC1` | -54.14% | -5.53% |
| 30 | `CN(C)S(=O)(=O)c1ccc2c(c1)N(Cc1ccccn1)CCC2` | 6.104% | 7.045% |
| 31 | `Cc1ccc(F)cc1CC(=O)N(CCN1CCOCC1)Cc1ccco1` | -23.52% | -12.98% |
| 32 | `Cc1cc(C)n(CC2CCCN2C(=O)c2cnc3n[nH]c(C)c3c2)n1` (stereo not shown) | - | 16.59% |
| 33 | `COc1ccc(C(=O)NCc2ccco2)nn1` | -0.4992% | -12.89% |
| 34 | `COCCO[C@@H]1CCN(Cc2csc(C)n2)[C@H]1Cc1ccccc1.O=C(O)C(F)(F)F` | -37.37% | 1.435% |
| 35 | `CCS(=O)(=O)N1CCCC(c2ccnc(N(C)C)c2)C1` (stereo not shown) | -6.517% | 7.966% |
| 36 | `O=C(CC1CCN(c2cccnn2)CC1)NCCO` | -2.695% | 8.083% |
| 37 | `CN(Cc1ccco1)C(=O)C1CCCc2ccccc21` (stereo not shown) | -3.202% | 5.481% |
| 38 | `Cc1cc(C)c2c(c1)C(NCc1c(C)nn(C)c1N(C)C)CCO2` (stereo not shown) | 14.42% | 11.6% |
| 39 | `Fc1cccc(OC2CCN(CCn3cc4ccccc4n3)CC2)c1` | -30.28% | 9.251% |
| 40 | `COc1cccc2c1ccn2CCC(=O)NCCCC(=O)O` | 53.78% | 2.152% |
| 41 | `CCn1cc(CNCCNc2ncc(Cl)cc2Cl)cn1` | -74.51% | 3.557% |
| 42 | `CCOCCN1CCN(c2ncccc2C#N)CC1CC` (stereo not shown) | -4.941% | 20.63% |
| 43 | `CSCc1cccc(S(=O)(=O)N2CCC(C)CC2)c1` | -51.65% | -0.9564% |
| 44 | `CNC(=O)CN1CCOCC12CCN(CCc1ccccc1)CC2.O=C(O)C(F)(F)F.O=C(O)C(F)(F)F` | 40.27% | 5.471% |
| 45 | `[H][C@@]12CCCCCN(C(C)=O)[C@@]1([H])[C@H](c1cccc(F)c1)CN2C(=O)C1CC1` | 22.28% | 0.182% |
| 46 | `Cn1cc(Br)cc(NC(=O)Cc2cccs2)c1=O` | -52.62% | -9.613% |
| 47 | `O=C(COc1ccc(Cl)cc1)NCc1nncn1C1CC1` | -13.19% | 0.8347% |
| 48 | `COc1cc(-c2cc(NC3CCCC3)nc3[nH]ccc23)nc(N)n1` | -14.76% | 14.95% |
| 49 | `CCNc1cc2c(nn1)CCN(C(=O)c1cc3ccccc3o1)C2` | 2.809% | 0.8267% |
| 50 | `Cc1nc(-c2c(C)noc2C)cc(C2CCN(S(=O)(=O)N(C)C)CC2)n1` | -2.473% | 21.83% |
| 51 | `N#Cc1ccc(F)c(CN2CCCC2Cn2cncn2)c1` (stereo not shown) | -4.271% | -0.6866% |
| 52 | `Cc1ccc2nc(CN3CCC(O)(Cn4ccnc4)CC3)cc(O)c2c1` | -1.198% | -4.411% |
| 53 | `CNC(=O)c1sc2ccccc2c1CC1CCCN1Cc1cnc(C)s1` (stereo not shown) | 2.678% | 11.83% |
| 54 | `O=C(Cc1ccc(F)cc1Cl)N1C[C@@H](CN2CCC(O)CC2)[C@@H](CO)C1` | -30.13% | 1.598% |

5 of the entries, repeated:

- CCN(CC)Cc1ccccc1NC(=O)N(C)Cc1ccccc1O : T. brucei: -48.84%; Toxoplasma: 8.977%
- CN(C)S(=O)(=O)c1ccc2c(c1)N(Cc1ccccn1)CCC2 : T. brucei: 6.104%; Toxoplasma: 7.045%
- Cc1cc(C)c2c(c1)C(NCc1c(C)nn(C)c1N(C)C)CCO2 (stereo not shown) : T. brucei: 14.42%; Toxoplasma: 11.6%
- Cc1ccc(F)cc1CC(=O)N(CCN1CCOCC1)Cc1ccco1 : T. brucei: -23.52%; Toxoplasma: -12.98%
- CCNc1cc2c(nn1)CCN(C(=O)c1cc3ccccc3o1)C2 : T. brucei: 2.809%; Toxoplasma: 0.8267%

Source: ChEMBL document CHEMBL3988442, “University of Dundee, Small-Polar-MMV Screening Library” (2021).